From the supplement of paper PMC7024190 come the findings set out here.

The list shows a part of the results. This data set is noisy: repeats of one test often differ as much as different tests do.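 Human embryonic kidney cells were transiently transfected with a plasmid bearing a Renilla luciferase gene under the HSV-TK promoter. This first-round screen tests roughly ten thousand compounds for ones that increase reporter output.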

For the assay, the system named is HEK 293FT. Kind of assay: log relative Renilla luciferase luminescence (reporter expression vs reference, reference not stated) (log (base not stated)); higher = higher recombinant reporter expression. To be noted: 10 µM; time after transfection 48 h. The protocol:
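HEK 293FT cells transiently transfected with pRL-TK (Renilla luciferase) were treated with compounds at 10 uM and luminescence was read about 42 h later. Values are log relative Renilla luminescence (log base and reference not stated). Single-pass screen; ICCB Known Bioactives library.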
Regarding `COc1ccc(Cl)cc1C(=O)NCCc1ccc(S(=O)(=O)NC(=O)NC2CCCCC2)cc1` [Glyburide], the log worked out at 0.305.

`CO[C@H]1C[C@@H]2CC[C@@H](C)[C@@](O)(O2)C(=O)C(=O)N2CCCC[C@H]2C(=O)O[C@H]([C@H](C)C[C@@H]2CC[C@@H](O)[C@H](OC)C2)CC(=O)[C@H](C)/C=C(\C)[C@@H](O)[C@@H](OC)C(=O)[C@H](C)C[C@H](C)/C=C/C=C/C=C/1C` [Rapamycin]: the log was -0.597.

Turning to `CC/C=C\C/C=C\C/C=C\CCCCCCCCCCCC(=O)O` [Docosatrienoic acid (22:3 n-3)], the log is -0.399.

As to `CCCc1c(OCCCCc2nnn[nH]2)ccc(C(C)=O)c1O`, the log is -0.119.

Regarding `CC(/C=C/C(=O)NO)=C\[C@@H](C)C(=O)c1ccc(N(C)C)cc1` [Trichostatin-A], the log was -0.146.

As for `COc1cc2c(cc1OC)-c1c/c(=N\c3c(C)cc(C)cc3C)n(C)c(=O)n1CC2` [Trequinsin], the log was -0.0215.

As for `CCCCCCCCCCOCCC(=O)O` [4-Oxatetradecanoic acid], the log came out at 0.163.

For `CC[C@]1(O)C[C@@H]2CN(CCc3c([nH]c4ccccc34)[C@@](C(=O)OC)(c3cc4c(cc3OC)N(C)[C@H]3[C@@](O)(C(=O)OC)[C@H](OC(C)=O)[C@]5(CC)C=CCN6CC[C@]43[C@@H]65)C2)C1` [Vinblastine], the log was -0.248.

Consider `OC[C@@H]1NC[C@@H](O)[C@H](O)[C@H]1O` [Deoxynorjrimycin(1)], for which the log came out at 0.373.

Turning to `CCCCC[C@H](O)/C=C/[C@H]1[C@H](O)CC(=O)[C@@H]1C/C=C\CCCC(=O)O` [Prostaglandin E2], the log was -0.0792.

As for `CCCCCCCCCCCCC/C=C/[C@@H](O)[C@H](CO)N(C)C` [N,N-Dimethylsphingosine], the log was -0.264.

Take `CCCCCCCCCCCCCCCCOCC(COP(=O)([O-])OCC[N+](C)(C)C)OC` (stereo not given) [1-Hexadecyl-2-methylglycero-3 PC]: the log amounted to 0.248.

On to `COCc1nc2c([nH]1)c(=O)n(C)c(=O)n2CC(C)C` [8-Methoxymethyl-IBMX], for which the log was -0.285.

As to `Nc1cc(N2CCCCC2)nc(N)[n+]1[O-]` [Minoxidil], the log is -0.00904.

`CC/C=C\C/C=C\C/C=C\C/C=C\C/C=C\CCCC(=O)O` [Eicosapentaenoic acid (20:5 n-3)]: the log was -0.169.

As to `CCCCC[C@H](O)/C=C/C1=C(CCCCCCC(=O)O)C(=O)CC1` [Prostaglandin B1], the log was -0.00555.

Turning to `NC(=O)c1cccc(N)c1` [Aminobenzamide (3-ABA) [3-Aminobenzamide (3-ABA)]], the log was -0.0179.

For the compound `CN1CCN(C2=Nc3cc(Cl)ccc3Nc3ccccc32)CC1` [Clozapine], the log was -0.152.

With `O=S(=O)(c1cccc2cnccc12)N1CCCNCC1`, the log stood at 0.309.

With `CCCCCCCC/C=C\CCCCCCCC(N)=O` [9,10-Octadecenoamide], the log was found to be 0.171.

In the case of `CC(C)=CC[C@@H](O)C1=CC(=O)c2c(O)ccc(O)c2C1=O` [Shikonin], the log was -0.77.

With `O=C1NC(=O)C(c2ccccc2[N+](=O)[O-])=C1Nc1ccc(O)c(Cl)c1`, the log was -0.13.

`N=C(N)NC(=O)c1nc(Cl)c(N)nc1N` [Amiloride]: the log worked out at 0.0039.

As to `Oc1ccc(/C=C/c2cc(O)cc(O)c2)cc1` [Resveratrol], the log was -0.636.

Turning to `CCCCCC=CCC=CC=CC=CC(SCC(NC(C)=O)C(=O)O)C(O)CCCC(=O)O` (stereo not given) [N-Acetyl-leukotriene E4], the log is -0.063.

Take `O=C(NCCCCCCNC(=O)ON=C1CCCCC1)ON=C1CCCCC1`: the log is -1.1.

For the compound `CCCCNc1cc(C(=O)O)cc(S(N)(=O)=O)c1Oc1ccccc1` [Bumetanide], the log was -0.107.

For `Cc1cccc(Nc2cc(Cl)nc(SCC(=O)O)n2)c1C`, the log is -0.23.

Regarding `COC(=O)C1=C(C)NC(C)=C(C(=O)OC)C1c1ccccc1[N+](=O)[O-]` [Nifedipine], the log was determined as 0.149.

As to `COc1c(C)c2c(c(O)c1C/C=C(\C)CCC(=O)O)C(=O)OC2` [Mycophenolic acid], the log was -0.159.

With `COc1cc2nc(N3CCN(C(=O)c4ccco4)CC3)nc(N)c2cc1OC` [Prazocin], the log is -0.0475.

As for `COc1cc(-c2ccc(=O)[nH]n2)ccc1OC(F)F` [Zardaverine], the log was -0.165.

For `COc1ccc2c(c1)c(CC(=O)O)c(C)n2C(=O)c1ccc(Cl)cc1` [Indomethacin], the log came out at 0.353.

As for `CCCCC/C=C\C/C=C\C/C=C\CC1OC1CCCC(=O)O` (stereo not given) [5,6-Epoxyeicosatrienoic acid], the log worked out at 0.0893.

As for `CC[N+](CC)(CC)CC(=O)Nc1c(C)cccc1C`, the log is 0.217.

Turning to `CCCCCCCC/C=C\C/C=C\C/C=C\CCCC(=O)O` [Mead acid (20:3 n-9)], the log was -0.0143.

Take `COC(=O)C[C@H](NC(=O)[C@H](C)NC(=O)[C@@H](NC(=O)OCc1ccccc1)C(C)C)C(=O)CF`: the log was -0.116.

With `Oc1ccc(-c2nc(-c3ccc(F)cc3)c(-c3ccncc3)[nH]2)cc1`, the log was -0.256.

In the case of `CCOC(=O)C1=C[C@]2(CC)CCCN3CCc4c(n1c1ccccc41)[C@@H]32` [Vinpocetine], the log is -0.303.

Take `COc1c(C=O)c(O)cc2c1C(=O)c1ccccc1C2=O` [Damnacanthal]: the log is -0.898.
